Experimental data from article PMC12666673.
These are yes or no findings as the source states them, for the method shown. Binding seen in cells or lysates may run through a third protein. Some results given as binding are weak or reduced against the parent protein; the word gives no strength.

Amino acid sequences for entries named in this document (tags omitted).
UniProt P07355: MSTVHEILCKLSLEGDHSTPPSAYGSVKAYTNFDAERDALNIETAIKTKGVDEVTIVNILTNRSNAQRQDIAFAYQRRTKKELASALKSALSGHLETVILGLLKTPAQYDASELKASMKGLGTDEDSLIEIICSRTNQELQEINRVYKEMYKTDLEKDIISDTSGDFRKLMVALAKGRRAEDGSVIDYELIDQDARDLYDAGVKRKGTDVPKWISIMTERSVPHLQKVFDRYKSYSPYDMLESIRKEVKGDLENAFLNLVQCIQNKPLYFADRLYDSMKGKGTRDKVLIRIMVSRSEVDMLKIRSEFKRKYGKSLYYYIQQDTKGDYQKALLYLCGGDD

T1: V-set and immunoglobulin domain containing 2 (VSIG2) (human (endogenous in AGS)) (UniProt Q96IQ7)
T1 sequence: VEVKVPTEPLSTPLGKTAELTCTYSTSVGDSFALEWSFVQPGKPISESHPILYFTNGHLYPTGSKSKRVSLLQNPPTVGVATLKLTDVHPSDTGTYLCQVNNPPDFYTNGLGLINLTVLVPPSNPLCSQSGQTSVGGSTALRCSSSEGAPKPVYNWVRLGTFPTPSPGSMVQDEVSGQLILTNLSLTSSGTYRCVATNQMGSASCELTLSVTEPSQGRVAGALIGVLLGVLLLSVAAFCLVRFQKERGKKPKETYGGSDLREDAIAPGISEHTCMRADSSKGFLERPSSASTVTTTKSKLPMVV


Assays:
[1] = target: T1, V-set and immunoglobulin domain containing 2 (VSIG2) (human (endogenous in AGS)); test: co-IP; AGS cells, endogenous proteins, VSIG2 and ANXA2 antibodies; cells cross-linked with 2 mM DSP, lysed in 0.5% digitonin then 0.3% CHAPS, washes with 500 mM NaCl, western blot
[2] = target: ANXA2 (human (endogenous in AGS)) (UniProt P07355); test: co-IP; FBXW10 with ANXA2 in GC cells with VSIG2 overexpressed or silenced, and in HGC27 cells transfected with increasing doses of VSIG2 plasmid
[3] = target: ANXA2 (human (endogenous in AGS)) (UniProt P07355); test: co-IP; gastric cancer cells, FBXW10 with ANXA2; cells cross-linked with 2 mM DSP, anti-ANXA2 magnetic beads, western blot

binding [1] | binding [2] | binding [3] | Molecule
binds |  |  | ANXA2 (from UniProt P07355 1-339)
 | binds |  | VSIG2, overexpressed from a plasmid (protein, UniProt Q96IQ7 24-327) VEVKVPTEPLSTPLGKTAELTCTYSTSVGDSFALEWSFVQPGKPISESHPILYFTNGHLYPTGSKSKRVSLLQNPPTVGVATLKLTDVHPSDTGTYLCQVNNPPDFYTNGLGLINLTVLVPPSNPLCSQSGQTSVGGSTALRCSSSEGAPKPVYNWVRLGTFPTPSPGSMVQDEVSGQLILTNLSLTSSGTYRCVATNQMGSASCELTLSVTEPSQGRVAGALIGVLLGVLLLSVAAFCLVRFQKERGKKPKETYGGSDLREDAIAPGISEHTCMRADSSKGFLERPSSASTVTTTKSKLPMVV
 | binds | binds | FBXW10 (protein, UniProt Q5XX13 1-1052) MENLESRLKNAPYFRCEKGTDSIPLCRKCETCVLAWKIFSTKEWFCRINDISQRRFLVGILKQLNSLYLLHYFQNILQTTQGKDFIYNRSRINLSKKEGKVVKSSLNQMLDKTVEQKMKEILYWFANSTQWTKANYTLLLLQMCNPKLLLTAANVIRVLFLREENNISGLNQDITDVCFSPEKDHSSKSATSQVYWTAKTQHTSLPLSKAPENEHLLGAASNPEEPWRNSLRCISEMNRLFSGKGDITKPGYDPCNLLVDLDDIRDLSSGFSKYRDFIRYLPIHLSKYILRMLDRHTLNKCASVSQHWAAMAQQVKMDLSAHGFIQNQITFLQGSYTRGIDPNYANKVSIPVPKMVDDGKSMRVKHPKWKLRTKNEYNLWTAYQNEETQQVLIEERNVFCGTYNVRILSDTWDQNRVIHYSGGDLIAVSSNRKIHLLDIIQVKAIPVEFRGHAGSVRALFLCEEENFLLSGSYDLSIRYWDLKSGVCTRIFGGHQGTITCMDLCKNRLVSGGRDCQVKVWDVDTGKCLKTFRHKDPILATRINDTYIVSSCERGLVKVWHIAMAQLVKTLSGHEGAVKCLFFDQWHLLSGSTDGLVMAWSMVGKYERCLMAFKHPKEVLDVSLLFLRVISACADGKIRIYNFLNGNCMKVLKANGRGDPVLSFFIQGNRMVVNTESNVLMFQFEHIKWQYAVEKTKQKKNKEKEEEKEENSLMEILSKCNIQVHSPRESVSSKQTVIQELLPGKPPKSRVLLKPAKFSSAVLIEELQSQGKSKSPRRDADDVEKAQKQGQLETPGKLPSHPKKKSWKIPMSPDQFLLTVSALQHAHNSGEFAYPCRPQTEITDVWGPSISYPRKVLNFKGKSIQRAVDRLRLSNPPIDVKRTSIPLEIQKLQPNLKISLHSPRVQSTIPQPMIIRSRFSGSLKGGDQVTSSIERAVCSTGPLTSMQVIKPNRMLAPQVGTATLSLKKERPRIYTALDPFRVNTEFVLLTVKEEKEHQEAKMKEYQARESTGVVDPGKVSKAAWIRKIKGLPIDNFTKQGKTAAPELGQNVFI
